Reference: paper PMC10916352, “Safety Evaluation of a Prototypical Diazirine-Based Covalent Crosslinker and Molecular Adhesive” (International Journal of Toxicology, 2023)
Several values for one entry are separate records, joined by “and”; a condition that tells them apart may be missing. Equal values may be shown once. The source gives many values for each of these; only a part stands here.

Test system: Salmonella typhimurium TA98
Assay: Bacterial reverse mutation test (Ames), strain TA98
Format: cell-based
Conditions: for Revertant Colonies (With S9), plates A, B, C / Revertant Colonies (Without S9), plates A, B, C: individual plates
Description: The reverse mutation test was performed to determine the potential of BondLynx and/or its metabolites to induce reverse mutations at the histidine locus of Salmonella typhimurium.[26],[27] The test employs strains of Salmonella typhimurium carrying mutations in the genes involved in histidine production, such that they are only able to grow in histidine supplemented culture media. Upon exposure to mutagenic materials, these mutations may be reversed, thereby restoring the ability to grow in histidine-free media. When grown in the presence of the test compound on media with a small amount of histidine, tester strains grow briefly to allow the opportunity for mutation, followed by proliferation of revertant colonies upon depletion of the provided histidine. Thus, the number of revertant colonies following incubation is indicative of the ability of the test compound to induce mutations.
Tests were performed on two strains of the bacteria (TA98 and TA100) in the absence and presence of an exogenous mammalian metabolic activation system (5% v/v S9). Positive controls and BondLynx were suspended in dimethyl sulfoxide (DMSO) for testing, and DMSO served as the vehicle control. Positive controls consisted of 2-nitrofluorene (10 μg/plate) for the TA98 strain without S9, methyl mesylate (650 μg/plate) for the TA100 strain without S9, and 2-aminoanthracene for both strains with S9 (1 μg/plate for TA98 and 5 μg/plate for TA100). Eight concentrations of BondLynx (1.7, 5.4, 17, 52, 164, 512, 1600 and 5000 μg/plate) were tested in triplicate. The vehicle control was tested in triplicate and the positive controls were tested singular.
Test solutions were prepared by pre-incubating .1 mL fresh bacterial culture (10^9 cells/mL), .1 mL of a BondLynx dilution or control solution, and .5 mL of S9 mix or .1 M phosphate buffer for 30 min before adding to 3 mL of molten (45 ± 2°C) top agar. After mixing in a vortex, agar solutions were poured onto selective agar plates. Upon solidification, the prepared plates were inverted and incubated at 37.0 ± 1.0°C for 48 ± 4 h. Following incubation, revertant colonies were counted with a Sorcerer Colony Counter. The condition of the bacterial background lawn was evaluated macroscopically and/or microscopically using a dissecting microscope when considered necessary.

FC(F)(F)C1(c2ccc(C(c3ccc(C4(C(F)(F)F)N=N4)cc3)(C(F)(F)F)C(F)(F)F)cc2)N=N1 [BondLynx, 2,2-bis-[4-[3-(trifluoromethyl)-3H-diazirin-3-yl]phenyl]hexafluoropropane]
Revertant Colonies (With S9), Mean ± SD (TA98, with S9, 17 μg/plate): 11 ± 5 | Revertant Colonies (With S9), plates A, B, C (TA98, with S9, 17 μg/plate): 11 and 6 and 16 | Revertant Colonies (With S9), Mean ± SD (TA98, with S9, 52 μg/plate): 14 ± 1 | Revertant Colonies (With S9), plates A, B, C (TA98, with S9, 52 μg/plate): 15 and 14 (2×) | Revertant Colonies (With S9), Mean ± SD (TA98, with S9, 164 μg/plate): 21 ± 4 | Revertant Colonies (With S9), plates A, B, C (TA98, with S9, 164 μg/plate): 16 and 23 and 24 | Revertant Colonies (With S9), Mean ± SD (TA98, with S9, 512 μg/plate): 20 ± 6 | Revertant Colonies (With S9), plates A, B, C (TA98, with S9, 512 μg/plate): 15 and 19 and 26 | Revertant Colonies (Without S9), Mean ± SD (TA98, without S9, 52 μg/plate): 10 ± 6 | Revertant Colonies (Without S9), plates A, B, C (TA98, without S9, 52 μg/plate): 5 and 16 and 8 | Revertant Colonies (Without S9), Mean ± SD (TA98, without S9, 164 μg/plate): 9 ± 5 | Revertant Colonies (Without S9), plates A, B, C (TA98, without S9, 164 μg/plate): 8 and 14 and 5 | Revertant Colonies (Without S9), Mean ± SD (TA98, without S9, 512 μg/plate): 13 ± 3 | Revertant Colonies (Without S9), plates A, B, C (TA98, without S9, 512 μg/plate): 10 and 12 and 16
